Data: US20120065365A1, “Stable Radiopharmaceutical Compositions and Methods for Their Preparation” (BRACCO IMAGING S.P.A., priority 2003, published 2012)
Some of these results come from one statement about several compounds together. At least one compound was matched to its structure with a doubt left.

Assay: Radiostability of preformed ^177Lu-A (3.5 mCi) with non-amino acid radiolysis protecting agents (Example 3)
Conditions: ^177Lu-A ~20 mCi/mL, 2% mercaptoethanol or 10% ethanol

## OCCS [ME, Mercaptoethanol]
  RCP after 48 hours: < 90%
